Numbering of substitutions follows the chain as printed. These are yes or no findings as the source states them, for the method shown. In cells and extracts the contact can be indirect. Binding calls can cover weak binding; strength is not graded here. Where a sequence is shown, tags or fusion partners need not be part of it.
Tests used:
Assay in all cases: co-IP; FLAG-tagged mouse Trim28 (WT or mutants) and Gal4^DBD-KRAB in TRIM28-knockout K562 cells; IP with anti-FLAG, Western blot with anti-FLAG and anti-Gal4; whole-cell extract buffer with 300 mM NaCl, 0.1% Triton X-100, 4 °C
[1] = target: T1, FLAG-tagged mouse Trim28-K267Q (mouse) (UniProt Q62318)
T1 sequence: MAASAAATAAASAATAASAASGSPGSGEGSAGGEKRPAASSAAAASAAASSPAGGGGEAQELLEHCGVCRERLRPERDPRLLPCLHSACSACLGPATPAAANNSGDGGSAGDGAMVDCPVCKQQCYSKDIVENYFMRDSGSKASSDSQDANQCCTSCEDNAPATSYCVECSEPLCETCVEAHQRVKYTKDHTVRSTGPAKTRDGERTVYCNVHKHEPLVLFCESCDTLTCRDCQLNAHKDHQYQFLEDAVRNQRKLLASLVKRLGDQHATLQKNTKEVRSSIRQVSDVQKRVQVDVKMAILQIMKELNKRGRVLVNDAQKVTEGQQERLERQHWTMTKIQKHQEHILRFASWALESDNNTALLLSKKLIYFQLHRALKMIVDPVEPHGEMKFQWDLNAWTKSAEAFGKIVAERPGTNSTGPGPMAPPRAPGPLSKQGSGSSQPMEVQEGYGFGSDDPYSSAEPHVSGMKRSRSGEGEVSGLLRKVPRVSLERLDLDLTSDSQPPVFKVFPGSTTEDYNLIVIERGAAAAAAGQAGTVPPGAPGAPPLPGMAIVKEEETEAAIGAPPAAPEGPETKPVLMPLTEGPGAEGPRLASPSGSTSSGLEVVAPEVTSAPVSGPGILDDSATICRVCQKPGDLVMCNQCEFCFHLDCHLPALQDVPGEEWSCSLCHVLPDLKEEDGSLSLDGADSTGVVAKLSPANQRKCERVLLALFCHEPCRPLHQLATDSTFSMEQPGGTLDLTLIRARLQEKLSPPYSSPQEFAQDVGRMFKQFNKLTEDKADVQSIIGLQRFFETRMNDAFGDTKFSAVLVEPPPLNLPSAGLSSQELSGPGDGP

[2] = target: T2, FLAG-tagged mouse Trim28-K267R (mouse) (UniProt Q62318)
T2 sequence: T1 sequence with Q267R

[3] = target: T3, FLAG-tagged mouse Trim28-K290R (mouse) (UniProt Q62318)
T3 sequence: T1 sequence with Q267K, K290R

binding [1]: binds
binding [2]: binds
binding [3]: binds
Substance: Gal4 DNA-binding domain (Gal4^DBD)-KRAB (domain or fragment)
